Experimental data taken from article PMC10708393, “The Fabrication of a Probe-Integrated Electrochemiluminescence Aptasensor Based on Double-Layered Nanochannel Array with Opposite Charges for the Sensitive Determination of C-Reactive Protein”.

Experiments:
[1] = system: carbohydrate antigen 19-9 (CA19-9); assay: electrochemiluminescence aptasensor; settings: selectivity test, no significant ECL decrease; 5'-NH2; CRP incubation 4 °C, 1 h on BSA-blocked aptamer electrode; wash 0.01 M PBS pH 7.4; ECL read in 3 mM TPA, 0.01 M PBS pH 7.4, room temperature; commercial protein; single-stranded DNA
serum amyloid A (SAA) = assay: electrochemiluminescence aptasensor; settings: selectivity test, no significant ECL decrease; 5'-NH2; CRP incubation 4 °C, 1 h on BSA-blocked aptamer electrode; wash 0.01 M PBS pH 7.4; ECL read in 3 mM TPA, 0.01 M PBS pH 7.4, room temperature; commercial protein; single-stranded DNA

## CGAAGGGGATTCGAGGGGTGATTGCGTGCTCCATTTGGTG [CRP aptamer]
[1]
  binding result: no binding
Serum amyloid A (SAA)
  binding result: no binding

Construct, isoform or probe ends are uncertain for at least one entry. A negative result means that nothing was seen under these conditions.
